Measured values as given in publication PMC11112123.
No constants are given. Whether binding was seen depends on the method and setting. In cells and extracts the contact can be indirect. A yes stands for co-enrichment or nearness to the bait. Other partners may have been found. A no says only that the protein was not detected with the bait.

The chains behind the UniProt entries cited, without tags or fusion partners.
UniProt Q8WVS4: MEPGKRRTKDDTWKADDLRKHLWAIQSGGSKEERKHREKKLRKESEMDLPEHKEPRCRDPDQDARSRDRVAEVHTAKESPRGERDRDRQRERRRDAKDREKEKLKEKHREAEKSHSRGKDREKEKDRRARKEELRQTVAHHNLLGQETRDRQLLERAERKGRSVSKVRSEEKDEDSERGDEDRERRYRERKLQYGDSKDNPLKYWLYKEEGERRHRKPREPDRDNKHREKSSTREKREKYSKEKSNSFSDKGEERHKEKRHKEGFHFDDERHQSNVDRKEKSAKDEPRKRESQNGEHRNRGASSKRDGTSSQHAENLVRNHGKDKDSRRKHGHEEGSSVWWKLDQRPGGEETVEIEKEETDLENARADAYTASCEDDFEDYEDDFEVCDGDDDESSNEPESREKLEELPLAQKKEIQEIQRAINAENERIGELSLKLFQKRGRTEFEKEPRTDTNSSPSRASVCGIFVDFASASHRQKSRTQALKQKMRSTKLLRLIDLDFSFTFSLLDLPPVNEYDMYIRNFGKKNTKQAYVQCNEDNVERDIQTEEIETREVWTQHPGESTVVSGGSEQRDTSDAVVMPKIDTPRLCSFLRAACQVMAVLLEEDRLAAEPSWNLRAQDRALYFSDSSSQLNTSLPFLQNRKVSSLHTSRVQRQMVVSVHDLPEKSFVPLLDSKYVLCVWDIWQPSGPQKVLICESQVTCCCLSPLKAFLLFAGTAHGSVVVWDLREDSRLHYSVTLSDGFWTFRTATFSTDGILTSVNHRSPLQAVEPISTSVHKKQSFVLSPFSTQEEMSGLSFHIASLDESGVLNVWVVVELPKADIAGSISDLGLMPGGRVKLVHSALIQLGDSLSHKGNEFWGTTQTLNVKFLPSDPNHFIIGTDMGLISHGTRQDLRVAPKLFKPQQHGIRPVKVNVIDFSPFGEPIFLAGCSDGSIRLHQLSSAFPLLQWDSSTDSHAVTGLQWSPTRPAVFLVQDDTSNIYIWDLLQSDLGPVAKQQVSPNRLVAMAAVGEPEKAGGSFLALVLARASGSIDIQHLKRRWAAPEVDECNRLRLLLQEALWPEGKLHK
UniProt Q8NCM8: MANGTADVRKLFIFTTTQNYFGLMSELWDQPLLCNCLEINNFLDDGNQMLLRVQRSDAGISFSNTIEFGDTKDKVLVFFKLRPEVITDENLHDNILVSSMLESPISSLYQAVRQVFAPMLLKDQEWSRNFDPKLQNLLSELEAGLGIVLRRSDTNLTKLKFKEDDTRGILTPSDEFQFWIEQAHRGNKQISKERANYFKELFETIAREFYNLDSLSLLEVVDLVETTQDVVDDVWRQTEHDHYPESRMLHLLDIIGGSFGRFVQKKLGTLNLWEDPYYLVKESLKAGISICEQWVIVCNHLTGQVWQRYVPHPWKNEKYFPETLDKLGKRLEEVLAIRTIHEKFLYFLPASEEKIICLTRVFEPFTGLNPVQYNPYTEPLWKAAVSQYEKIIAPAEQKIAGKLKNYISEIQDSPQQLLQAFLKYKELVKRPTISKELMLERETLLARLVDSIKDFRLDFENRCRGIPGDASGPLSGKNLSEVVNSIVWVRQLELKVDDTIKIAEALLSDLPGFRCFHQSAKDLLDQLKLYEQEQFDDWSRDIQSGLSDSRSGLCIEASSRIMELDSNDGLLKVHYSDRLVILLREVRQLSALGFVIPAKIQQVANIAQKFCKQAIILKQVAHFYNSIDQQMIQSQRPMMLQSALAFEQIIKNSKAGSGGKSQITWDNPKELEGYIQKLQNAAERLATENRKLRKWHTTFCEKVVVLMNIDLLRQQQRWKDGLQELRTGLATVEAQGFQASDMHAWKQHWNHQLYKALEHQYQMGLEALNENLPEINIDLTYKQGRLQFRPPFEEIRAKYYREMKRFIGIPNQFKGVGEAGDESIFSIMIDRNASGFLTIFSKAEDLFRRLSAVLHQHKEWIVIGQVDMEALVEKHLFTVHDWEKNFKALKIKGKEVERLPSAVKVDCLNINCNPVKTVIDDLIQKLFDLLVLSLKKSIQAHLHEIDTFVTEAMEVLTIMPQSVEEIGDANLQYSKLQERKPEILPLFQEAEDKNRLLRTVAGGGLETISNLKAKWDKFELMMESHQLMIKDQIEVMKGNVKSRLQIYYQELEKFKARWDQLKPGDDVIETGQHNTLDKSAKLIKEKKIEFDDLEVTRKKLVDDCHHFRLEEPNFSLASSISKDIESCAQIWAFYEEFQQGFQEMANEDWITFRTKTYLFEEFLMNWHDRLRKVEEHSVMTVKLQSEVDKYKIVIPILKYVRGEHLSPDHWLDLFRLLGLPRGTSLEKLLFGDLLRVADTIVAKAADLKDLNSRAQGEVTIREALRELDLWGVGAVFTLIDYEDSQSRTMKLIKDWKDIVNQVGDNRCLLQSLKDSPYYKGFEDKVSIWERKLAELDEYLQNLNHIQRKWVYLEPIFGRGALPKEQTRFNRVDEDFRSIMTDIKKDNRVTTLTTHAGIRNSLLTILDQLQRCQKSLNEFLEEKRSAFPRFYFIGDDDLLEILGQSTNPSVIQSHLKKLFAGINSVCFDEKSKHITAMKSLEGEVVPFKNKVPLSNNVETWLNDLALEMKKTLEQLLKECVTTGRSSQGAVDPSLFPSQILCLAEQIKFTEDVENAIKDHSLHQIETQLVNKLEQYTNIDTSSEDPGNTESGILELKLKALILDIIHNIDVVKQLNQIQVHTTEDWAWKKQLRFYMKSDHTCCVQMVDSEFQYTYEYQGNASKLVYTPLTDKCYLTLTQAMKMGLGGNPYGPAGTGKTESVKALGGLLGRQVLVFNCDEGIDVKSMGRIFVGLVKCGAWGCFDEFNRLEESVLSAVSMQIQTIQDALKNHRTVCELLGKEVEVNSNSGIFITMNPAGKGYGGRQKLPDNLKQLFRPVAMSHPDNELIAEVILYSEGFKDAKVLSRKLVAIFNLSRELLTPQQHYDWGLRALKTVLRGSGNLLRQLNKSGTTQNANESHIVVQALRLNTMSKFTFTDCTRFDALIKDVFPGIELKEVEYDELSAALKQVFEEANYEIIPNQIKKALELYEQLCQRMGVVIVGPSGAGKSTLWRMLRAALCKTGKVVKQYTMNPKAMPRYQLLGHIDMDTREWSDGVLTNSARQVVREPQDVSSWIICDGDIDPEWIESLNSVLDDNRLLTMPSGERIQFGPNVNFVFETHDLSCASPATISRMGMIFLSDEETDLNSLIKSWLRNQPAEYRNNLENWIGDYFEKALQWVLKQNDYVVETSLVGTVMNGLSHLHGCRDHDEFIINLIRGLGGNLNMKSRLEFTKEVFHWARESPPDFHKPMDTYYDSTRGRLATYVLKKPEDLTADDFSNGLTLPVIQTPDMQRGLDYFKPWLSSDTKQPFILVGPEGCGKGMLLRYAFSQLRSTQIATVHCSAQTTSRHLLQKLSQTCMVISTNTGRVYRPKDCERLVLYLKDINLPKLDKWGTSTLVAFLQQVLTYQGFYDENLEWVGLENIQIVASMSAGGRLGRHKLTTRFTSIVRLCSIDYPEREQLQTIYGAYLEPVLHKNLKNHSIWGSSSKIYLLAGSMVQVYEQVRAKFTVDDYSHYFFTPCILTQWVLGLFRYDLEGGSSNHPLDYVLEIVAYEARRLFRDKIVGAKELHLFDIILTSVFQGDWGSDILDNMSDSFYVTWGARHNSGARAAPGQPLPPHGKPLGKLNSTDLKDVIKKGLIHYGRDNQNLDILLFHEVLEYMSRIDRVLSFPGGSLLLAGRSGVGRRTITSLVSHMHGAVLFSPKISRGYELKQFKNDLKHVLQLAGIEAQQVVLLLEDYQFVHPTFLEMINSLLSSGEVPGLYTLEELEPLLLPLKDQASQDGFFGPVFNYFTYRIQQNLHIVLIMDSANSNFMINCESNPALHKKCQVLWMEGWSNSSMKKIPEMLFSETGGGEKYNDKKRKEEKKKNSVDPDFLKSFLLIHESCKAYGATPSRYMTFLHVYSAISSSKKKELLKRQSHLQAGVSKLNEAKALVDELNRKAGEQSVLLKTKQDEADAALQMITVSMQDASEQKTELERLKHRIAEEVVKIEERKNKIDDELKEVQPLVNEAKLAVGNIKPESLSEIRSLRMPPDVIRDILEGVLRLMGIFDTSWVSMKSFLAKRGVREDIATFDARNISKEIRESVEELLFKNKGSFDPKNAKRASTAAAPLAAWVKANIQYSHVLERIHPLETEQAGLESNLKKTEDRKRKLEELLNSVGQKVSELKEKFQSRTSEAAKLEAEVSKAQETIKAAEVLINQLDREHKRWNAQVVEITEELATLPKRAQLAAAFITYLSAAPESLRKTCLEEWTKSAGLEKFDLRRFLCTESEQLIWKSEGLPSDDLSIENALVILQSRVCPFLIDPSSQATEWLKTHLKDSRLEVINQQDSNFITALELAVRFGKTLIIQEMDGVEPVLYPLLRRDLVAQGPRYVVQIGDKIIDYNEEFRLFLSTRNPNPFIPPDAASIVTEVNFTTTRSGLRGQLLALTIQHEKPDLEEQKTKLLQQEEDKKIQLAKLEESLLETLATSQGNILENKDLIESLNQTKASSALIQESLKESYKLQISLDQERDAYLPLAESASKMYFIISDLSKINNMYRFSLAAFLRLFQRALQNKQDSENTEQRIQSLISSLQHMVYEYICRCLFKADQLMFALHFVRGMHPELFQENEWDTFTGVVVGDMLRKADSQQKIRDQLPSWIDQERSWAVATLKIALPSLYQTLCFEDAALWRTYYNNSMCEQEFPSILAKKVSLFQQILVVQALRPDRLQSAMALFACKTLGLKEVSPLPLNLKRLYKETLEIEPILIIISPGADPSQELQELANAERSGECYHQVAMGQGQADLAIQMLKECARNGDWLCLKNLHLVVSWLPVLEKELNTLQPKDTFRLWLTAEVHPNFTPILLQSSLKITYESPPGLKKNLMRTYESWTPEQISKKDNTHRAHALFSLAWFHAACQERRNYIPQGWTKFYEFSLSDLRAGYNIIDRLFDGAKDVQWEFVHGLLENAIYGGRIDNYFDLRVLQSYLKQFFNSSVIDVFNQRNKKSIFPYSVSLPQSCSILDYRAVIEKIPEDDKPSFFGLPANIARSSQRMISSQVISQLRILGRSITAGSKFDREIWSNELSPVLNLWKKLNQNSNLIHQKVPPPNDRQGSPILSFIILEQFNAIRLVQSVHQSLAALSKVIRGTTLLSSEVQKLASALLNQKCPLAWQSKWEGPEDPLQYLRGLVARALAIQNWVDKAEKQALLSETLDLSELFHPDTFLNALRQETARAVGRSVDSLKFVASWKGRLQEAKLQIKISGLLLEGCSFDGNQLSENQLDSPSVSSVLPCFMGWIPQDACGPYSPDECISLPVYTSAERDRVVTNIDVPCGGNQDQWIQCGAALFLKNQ
UniProt P51808: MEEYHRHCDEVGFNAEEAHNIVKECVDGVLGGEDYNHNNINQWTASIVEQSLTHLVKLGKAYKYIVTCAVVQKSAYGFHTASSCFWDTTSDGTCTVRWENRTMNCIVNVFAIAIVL
UniProt P63172: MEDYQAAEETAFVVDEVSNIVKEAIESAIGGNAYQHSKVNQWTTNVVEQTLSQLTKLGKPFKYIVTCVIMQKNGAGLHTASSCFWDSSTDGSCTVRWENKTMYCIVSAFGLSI
UniProt Q96EX3: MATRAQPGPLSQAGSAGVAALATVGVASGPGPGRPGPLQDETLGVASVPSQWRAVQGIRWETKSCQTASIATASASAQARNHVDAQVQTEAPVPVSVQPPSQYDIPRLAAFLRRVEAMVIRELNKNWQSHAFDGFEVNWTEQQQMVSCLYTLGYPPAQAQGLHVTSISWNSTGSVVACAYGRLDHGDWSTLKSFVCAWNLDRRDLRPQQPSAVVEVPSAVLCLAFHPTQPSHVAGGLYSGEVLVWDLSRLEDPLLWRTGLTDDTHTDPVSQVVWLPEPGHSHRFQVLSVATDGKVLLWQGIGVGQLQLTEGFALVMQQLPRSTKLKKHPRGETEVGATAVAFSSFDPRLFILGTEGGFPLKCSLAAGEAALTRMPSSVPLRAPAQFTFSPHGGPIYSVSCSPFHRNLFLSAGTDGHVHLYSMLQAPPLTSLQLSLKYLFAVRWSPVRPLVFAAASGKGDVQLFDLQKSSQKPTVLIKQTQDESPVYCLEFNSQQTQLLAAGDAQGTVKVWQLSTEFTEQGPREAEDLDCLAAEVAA

Target: HA–WDR60 (human) (UniProt Q8WVS4)
Experiment: affinity purification with mass spectrometry; HA–WDR60 on HA–agarose beads from transfected RPE1 WT and CEP170 KO cells, trypsin digest, TMT labelling; abundance against HA–GFP; three independent experiments

binding	Substance
no binding	CEP170B (from UniProt Q9Y4F5 1-1589)
binds	dynein-2 heavy chain (DHC2) (from UniProt Q8NCM8 1-4307)
binds	DYNLT3 (TCTEX3) (from UniProt P51808 1-116)
binds	DYNLT1 (TCTEX1) (from UniProt P63172 1-113)
binds	intermediate chain WDR34 (from UniProt Q96EX3 1-536)
